Reference: PubChem BioAssay AID2685 (National Center for Advancing Translational Sciences (NCATS), 2010)
The other results are listed elsewhere or left out. The main result of the screen is listed elsewhere. These columns were measured beside it and carry no call. The list favours compounds with an active or inconclusive main result. Potencies come from curve fits of mixed quality, noted in brackets.

Test: qHTS Assay for Lipid Storage Modulators in Drosophila S3 Cells;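 on cell number change: cells counted by Cell Tracker Red CMTPX staining in the red channel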
Details: BODIPY lipid droplet fluorescence, 18-24 h; for cell number change: measured here: cell count max response, cells fed with added oleic acid
In short: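 Drosophila S3 cells loaded with oleic acid (400 uM, as added) and compounds at several concentrations; lipid droplets imaged by 488-nm laser-scanning cytometry, 500–530 nm intensity and object ratio to cell channel. Percent activity normalized to 20 uM Triacsin C.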

[1] = measured here: cell number channel AC50, cells fed with added oleic acid
[2] = measured here: lipid fluorescence (Fed channel) AC50, cells fed with added oleic acid

Compound: Cc1cccc(C)c1NC(=O)N1CC(C)OC(C)C1 (configuration not stated)
- cell number change: 43.1%
- AC50 [1]: 5.8 µM [rising, partial curve, poor fit]

Compound: CCN(CC)c1ccc(/C=N/NC(=O)c2cccc(S(=O)(=O)Nc3ccccc3OC)c2)cc1
- cell number change: 80.3%
- AC50 [1]: 18.4 µM [rising, single point]

Compound: Nc1c(N(Cc2ccccc2)C(=O)COc2cccc(Cl)c2)c(=O)[nH]c(=O)n1Cc1ccccc1
- cell number change: 125%
- AC50 [1]: 29.1 µM [rising, single point]

Compound: CC(=O)Nc1ccc(SCCCC(=O)c2ccccc2)cc1
- cell number change: 30.2%
- AC50 [1]: 29.1 µM [rising, single point]
- AC50 [2]: 20.6 µM [rising, partial curve]

Compound: CCOc1cc(/C=C/C(=O)O)ccc1OCCOc1ccccc1
- cell number change: 5.13%

Compound: Cc1cc(Nc2ccc(F)cc2C)n2nc(C)nc2n1
- cell number change: -2.43%

Compound: CCOc1ccc(-n2cc(C(=O)Nc3ccc(Cl)cn3)c3cc(OC)c(OC)cc3c2=O)cc1
- cell number change: 8.94%

Compound: CCC1C(=O)NCCN1C(=O)c1ccc2nc(Cc3cccc(Cl)c3)oc2c1 (configuration not stated)
- cell number change: -42.1%
- AC50 [1]: 0.517 µM [falling, full curve, poor fit]
- AC50 [2]: 29.1 µM [rising, single point]

Compound: CC(C)C1C(c2ccccc2)N(C)C(c2ccccc2)CC1(O)c1ccccc1 (configuration not stated)
- cell number change: -11.5%
- AC50 [2]: 0.651 µM [falling, single point]

Compound: COc1ccc(OC)c(NC(=O)c2cnc(Nc3ccccc3OC)c3ccccc23)c1
- cell number change: 7.05%
- AC50 [1]: 0.116 µM [rising, full curve, poor fit]
- AC50 [2]: 0.82 µM [rising, full curve]

Compound: CCC1Oc2ccccc2N(CC(=O)NCC2CCCO2)C1=O (configuration not stated)
- cell number change: 20%

Compound: Cc1ccc(OCCNC(=O)CCNS(=O)(=O)c2ccc3ccccc3c2)cc1
- cell number change: -7.13%
- AC50 [2]: 6.51 µM [rising, partial curve]

Compound: COC(=O)c1ccc(/C=C/C(=O)OCC(=O)Nc2ncc(Cl)cc2Cl)cc1
- cell number change: -24.8%
- AC50 [1]: 0.184 µM [falling, full curve, poor fit]
- AC50 [2]: 0.146 µM [falling, full curve, poor fit]

Compound: Cc1ccc(C(C(=O)NC2CCCC2)N(C(=O)c2csnn2)c2cccc(F)c2)o1 (configuration not stated)
- cell number change: 29%

Compound: CN(C)/N=C/c1ccc(N2CCOCC2)cc1
- cell number change: 13.2%
- AC50 [1]: 0.00461 µM [falling, full curve, poor fit]

Compound: Cc1ccc(NS(=O)(=O)c2c(C)noc2C)cc1
- cell number change: 22.2%

Compound: CCCC[C@@H]1CNCCN1CC1(c2ccccc2)CC1
- cell number change: -11.4%
- AC50 [1]: 0.0291 µM [rising, partial curve, poor fit]
- AC50 [2]: 20.6 µM [falling, partial curve]

Compound: O=C(CN1CCC(NC(=O)C2CCCCC2)CC1)NCc1ccco1
- cell number change: 4.88%
- AC50 [2]: 0.58 µM [rising, single point]

Compound: CCOc1cc(CNn2cnnc2SCC(=O)NC(C)(C)C)ccc1OCC(=O)NC(C)(C)C
- cell number change: 15.3%
- AC50 [2]: 3.98 µM [rising, partial curve]

Compound: CN(C)CC(C)(C)CNS(=O)(=O)CC12CCC(CC1=O)C2(C)C (configuration not stated)
- cell number change: -61.6%
- AC50 [1]: 13 µM [falling, partial curve]
- AC50 [2]: 16.4 µM [falling, partial curve]

Compound: O=C(Nc1ccnn1C1CCN(Cc2ccccc2)CC1)C1CCCC1
- cell number change: 5.27%

Compound: O=C(O)CCn1c(=O)sc2ccccc21
- cell number change: 8.78%
- AC50 [2]: 25.9 µM [rising, partial curve]

Compound: O=C(CSc1nnc(-c2ccco2)n1-c1ccccc1)NCC1CCCO1 (configuration not stated)
- AC50 [2]: 29.1 µM [falling, single point]

Compound: CC1CC(C)CN(CCCNC(=O)Cn2ncc3c(=O)oc4ccccc4c32)C1 (configuration not stated)
- cell number change: 35.8%
- AC50 [1]: 7.31 µM [rising, partial curve, poor fit]
- AC50 [2]: 10.3 µM [rising, partial curve, poor fit]

Compound: CCc1ccccc1NC1=NCC(=O)N1C1CCCCC1
- cell number change: -40.3%
- AC50 [1]: 29.1 µM [falling, single point]
- AC50 [2]: 6.51 µM [falling, partial curve, poor fit]

Compound: CCCc1nc2oc3c(NCCN(C)C)ncnc3c2c2c1CCCC2
- cell number change: -13.3%
- AC50 [2]: 6.51 µM [rising, single point]

Compound: COC(=O)C(=CC(=CN(C)C)C=C(C(=O)OC)C(=O)OC)C(=O)OC
- cell number change: -37.5%
- AC50 [1]: 29.1 µM [falling, single point]

Compound: CCOc1ccc(CCNC(=O)COC(=O)c2ccc(Cl)nc2)cc1OCC
- cell number change: -19%
- AC50 [1]: 2.31 µM [falling, single point]
- AC50 [2]: 2.91 µM [falling, full curve, poor fit]

Compound: O=C(COc1ccc(Br)cc1CO)Nc1ccccc1
- cell number change: -7.39%

Compound: CCOc1ccc(NC(=O)CN(C)C(=O)c2ccc3c(c2)C(=O)N(CCC(C)C)C3=O)cc1OCC
- AC50 [2]: 6.51 µM [rising, single point]

Compound: Cc1ccc(-c2nnn(CC(=O)N(CC(=O)NC3CCCCC3)c3ccccc3F)n2)o1
- cell number change: 7.26%

Compound: O=C(NCCCN1CCOCC1)c1ccccc1NS(=O)(=O)c1ccc(Br)cc1
- AC50 [1]: 0.58 µM [rising, single point]
- AC50 [2]: 5.17 µM [rising, single point]

Compound: CC1CCCC(NC(=O)CN(C)CC(=O)Nc2ccc(F)cc2)C1C (configuration not stated)
- cell number change: 9.27%
- AC50 [2]: 0.092 µM [rising, single point]

Compound: Cc1ccc(C)c(OCCC(=O)NNC(=O)c2ccccc2F)c1
- cell number change: 12%

Compound: O=S(=O)(O)Oc1c[nH]c2ccccc12
- cell number change: 4.36%
- AC50 [2]: 6.51 µM [rising, single point]

Compound: Cc1cc(OCC(=O)C(C)(C)C)c2c(C)c(C)c(=O)oc2c1
- cell number change: -27.1%
- AC50 [2]: 29.1 µM [falling, single point]

Compound: Cc1ccc(C)c(S(=O)(=O)N2CCN(C(=O)CCNC(=O)c3ccc(Br)cc3)CC2)c1
- cell number change: 93.3%

Compound: CCO[C@@H]1OC(C(=O)N2CCN(Cc3ccc4c(c3)OCO4)CC2)=C[C@H](c2ccc(C(F)(F)F)cc2)[C@H]1CCCO
- cell number change: -23.3%
- AC50 [2]: 29.1 µM [falling, single point]

Compound: COC(=O)C(C(=O)OC)c1ncccc1[N+](=O)[O-]
- cell number change: -44.9%
- AC50 [1]: 29.1 µM [falling, single point]

Compound: CCOc1ccc(C2NC(=O)C(C#N)=C(S)N2c2ccc(C)cc2)cc1OC (configuration not stated)
- cell number change: 17.5%
- AC50 [1]: 0.00411 µM [falling, full curve, poor fit]

Compound: COc1ccc(Cc2noc(CN(C)CC(O)c3ccccc3)n2)cc1OC (configuration not stated)
- cell number change: 22.6%
- AC50 [2]: 9.2 µM [rising, partial curve]

Compound: CCOC(=O)C1C(=O)NC(N2CCN(Cc3ccccc3)CC2)=NC1c1ccccc1 (configuration not stated)
- cell number change: 20.5%
- AC50 [2]: 0.058 µM [falling, full curve, poor fit]

Compound: COc1ccc(CCNC(=O)CN(c2cc(OC)ccc2OC)S(=O)(=O)c2ccccc2)cc1
- cell number change: -14.5%
- AC50 [2]: 35.5 µM [falling, single point]

Compound: C=CCn1c(SCC(=O)NC2CCCc3ccccc32)nnc1-c1ccncc1 (configuration not stated)
- cell number change: -19.5%
- AC50 [1]: 0.231 µM [falling, full curve, poor fit]
- AC50 [2]: 6.51 µM [rising, single point]

Compound: CC1(C)CC(=O)C=C(NCC(=O)O)C1
- cell number change: -4%

Compound: Cc1nc(-c2ccc(NC(=O)CC(C)C)cc2)cs1
- cell number change: 36.7%
- AC50 [1]: 5.17 µM [rising, partial curve]

Compound: C/C(=N\Nc1ccccn1)c1ccc2c(c1)OCO2
- cell number change: 10.8%
- AC50 [1]: 0.00517 µM [rising, full curve, poor fit]
- AC50 [2]: 0.00461 µM [rising, full curve]

Compound: CCOC(=O)CON1C(=O)c2ccccc2C1=O
- cell number change: -13.7%
- AC50 [1]: 4.11 µM [falling, partial curve, poor fit]
- AC50 [2]: 14.6 µM [falling, partial curve]

Compound: O=C(CCC(=O)NNC(=O)c1ccc([N+](=O)[O-])cc1)NCc1ccccc1
- cell number change: 134%

Compound: CC(=O)c1cnn(-c2ccc(Cl)cc2)c1C
- cell number change: 14.1%
- AC50 [2]: 18.4 µM [rising, single point]

Compound: Fc1cc(Br)ccc1COc1ccc(-c2nnco2)cc1
- cell number change: 22.5%
- AC50 [2]: 9.2 µM [rising, partial curve]

Compound: CCC1CCCCN1C(=O)CSc1nnc(CNC(=O)c2c(F)cccc2Cl)o1 (configuration not stated)
- cell number change: -13.6%

Compound: C/C(=N\NC1=NCCN1)c1ccc(N)c([N+](=O)[O-])c1
- cell number change: -3.74%

Compound: COC(=O)C1CCN(Cc2cc(=O)oc3cc(OC)ccc23)CC1
- cell number change: 24%
- AC50 [2]: 11.6 µM [rising, partial curve]

Compound: CCCn1c(N)c(C(=O)CSc2ncn[nH]2)c(=O)n(C)c1=O
- cell number change: 17.1%
- AC50 [2]: 0.116 µM [falling, full curve, poor fit]

Compound: N#Cc1ccc2[nH]c(CO)c(-c3ccccc3)c2c1
- cell number change: 3.24%
- AC50 [2]: 14.6 µM [rising, single point]

Compound: CCSc1nnc(NC(=O)c2cccc3ccccc23)s1
- cell number change: -19.7%
- AC50 [2]: 3.26 µM [falling, single point]

Compound: CC(C)Cc1ccc(C(C)NC(=O)Cc2ccc(S(=O)(=O)N3CCOCC3)s2)cc1 (configuration not stated)
- cell number change: 13.8%
- AC50 [2]: 0.116 µM [falling, full curve, poor fit]

Compound: COc1ccc(-c2cn3c(C)c(C(=O)N4CCN(c5ccccc5F)CC4)sc3n2)cc1
- cell number change: -6.63%
- AC50 [2]: 29.1 µM [falling, single point]

Compound: CC#CC[N+](C)(C)CCCCCC
- cell number change: -11.8%
- AC50 [2]: 0.103 µM [falling, full curve, poor fit]

Compound: O=C(c1ccc(Cl)c(S(=O)(=O)NCc2ccco2)c1)N1CCN(c2ccc(F)cc2)CC1
- AC50 [1]: 1.84 µM [rising, partial curve]

Compound: CN(C)S(=O)(=O)c1cccc(-c2nnc(SCc3ccc4c(c3)OCCO4)o2)c1
- cell number change: -9.44%
